In US20100286200A1, “COMBINATION OF METFORMIN AND AN MTP INHIBITOR” (JANSSEN PHARMACEUTICA NV, priority 2008, published 2010):

System: subjects with type 2 diabetes mellitus undergoing metformin treatment
Assay: Proof-of-concept 12-week double-blind, randomized, placebo-controlled study of the MTP inhibitor in subjects on metformin treatment
Format: in vivo, human
Excerpt: Proof-of-concept study of combinations of metformin and the MTP inhibitor (+)-phenyl-(4-{4-[(4′-trifluoromethyl-biphenyl-2-carbonyl)-amino]-phenyl}-piperidin-1-yl)-acetic acid methyl ester
Safety and efficacy of the MTP inhibitor (+)-phenyl-(4-{4-[(4′-trifluoromethyl-biphenyl-2-carbonyl)-amino]-phenyl}-piperidin-1-yl)-acetic acid methyl ester in the treatment of subjects with type 2 diabetes mellitus undergoing metformin treatment has been investigated. Three dosing regimens of the MTP inhibitor, 5-10-15 mg bid, were compared to placebo in a double-blind, randomized, parallel-group study design of 12 weeks wherein all subjects were following metformin treatment. All subjects remained on a calorically appropriate, low fat (≦30%) diet, being in accordance with the local practice guidelines for the treatment of type 2 diabetes.
Subjects randomized into the study had to have type 2 diabetes for at least 3 months and remained on a stable metformin monotherapy for at least 2 months. There were 88, 84, 91 and 89 patients randomized to placebo, 5 mg, 10 mg and 15 mg BID. Mean age was 55 years and there were slightly more males than females randomized into the study (males:females—54%:46%).
The mean baseline glycosylated hemoglobin (HbA1c) was 7.8±0.8% (mean±SD) and the mean plasma glucose was 9.1±1.80 mmol/L (mean±SD). The majority (68%) of subjects had HbA1c levels≦8%.
Mean weight at baseline was 94.9 kg and varied between 92.8 kg and 96.7 kg in different treatment groups, while the mean baseline BMI was 32.8 kg/m^2.

Compound: COC(=O)C(c1ccccc1)N1CCC(c2ccc(NC(=O)c3ccccc3-c3ccc(C(F)(F)F)cc3)cc2)CC1 (single isomer, unassigned; (+)) [(+)-phenyl-(4-{4-[(4′-trifluoromethyl-biphenyl-2-carbonyl)-amino]-phenyl}-piperidin-1-yl)-acetic acid methyl ester]
- proportion of subjects who withdrew from the study (5 mg bid): 7%
- proportion of subjects who withdrew from the study (10 mg bid): 18%
- proportion of subjects who withdrew from the study (15 mg bid): 13%
